Source: the supplement of paper PMC9226226
Values joined by “and” are separate entries in the source; they are usually repeats but may differ in a detail not shown here. Identical values can stand only once. ± gives the standard deviation of the averaged measurements. This is one part of the list. Some well-known active drugs show little effect in this data set, so a weak value is uncertain.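 Prematurely aging human mesenchymal stem cells without the Werner syndrome gene were monitored by automated live-cell imaging over three biological repeats. The top twenty drugs for increasing growth versus vehicle moved forward; no fixed cutoff was specified.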

System: Werner syndrome hMSCs (WRN-/-)
Assay: relative cell density (fold change vs vehicle control); higher = more proliferation (geroprotective)
Settings: concentration (umol/L): 1, 6 days

SMILES | relative cell density (vehicle: DMSO) | relative cell density (vehicle: Water)
CN1[C@@H]2C[C@@H](OC(=O)[C@H](CO)c3ccccc3)C[C@H]1[C@@H]1O[C@@H]12 | 1.11 | –
N[C@@H]1C[C@H]1c1ccccc1 | 1.26 | –
CNC1CC(N)C(O)C(OC2OC(CO)C(O)C3OC4(OC(C(N)CO)C(O)C(O)C4O)OC23)C1O (configuration not stated) | – | 0.974 ± 0.17
Cn1cc(C2=C(c3cn(C4CCN(Cc5ccccn5)CC4)c4ccccc34)C(=O)NC2=O)c2ccccc21 | 1.31 | –
NC(=O)c1cc(N2CC2)c([N+](=O)[O-])cc1[N+](=O)[O-] | 0.982 | –
Cc1cccc(C)c1NC(=O)CN1CCCC1=O | 1.13 | –
CCCC[N+]1(C)[C@@H]2C[C@@H](OC(=O)[C@H](CO)c3ccccc3)C[C@H]1[C@@H]1O[C@@H]12 (some centres not stated) | 1.25 | –
CC(C)C(Br)C(=O)NC(N)=O (configuration not stated) | 1.03 | –
Cc1cccc(Cc2c[nH]cn2)c1C | 1.12 | –
NCC(O)c1ccc(O)cc1 (configuration not stated) | 0.811 | –
CC(=O)O[C@H]1C[C@@H]2CC[C@@H]3[C@H](CC[C@@]4(C)[C@H]3C[C@H]([N+]3(C)CCCCC3)[C@@H]4OC(C)=O)[C@@]2(C)C[C@@H]1[N+]1(C)CCCCC1 | 0.97 | –
CN1[C@@H]2CC[C@H]1C[C@@H](OC(=O)C(CO)c1ccccc1)C2 (some centres not stated) | 0.993 | –
C[C@]12CCC(=O)C(O)=C1CC[C@@H]1[C@@H]2CC[C@]2(C)C(=O)CC[C@@H]12 | 1.19 | –
CN(C)C(=O)Oc1cccc([N+](C)(C)C)c1 | – | 1.01
CCN(CC)CCOC(=O)C(O)(c1ccccc1)c1ccccc1 | 0.919 | –
COc1ccc(C(CN(C)C)C2(O)CCCCC2)cc1 (configuration not stated) | 1.26 | –

SMILES | relative cell density (vehicle: DMSO) | relative cell density (vehicle: Water)
CC[N+](C)(CC)CCOC(=O)C(O)(c1ccccc1)c1ccccc1 | 1.09 | –
CC(C)NCC(O)c1ccccc1Cl (configuration not stated) | 1.22 | –
CN(C)C(=O)Oc1ccc[n+](C)c1 | 0.945 | –
NCCCNCCSP(=O)(O)O | – | 1.33
C=CN1CCCC1=O.II | 1.18 | –
Cn1c(COP(=O)(NCCBr)NCCBr)cnc1[N+](=O)[O-] | 0.751 | –
CCC1(C)CC(=O)NC(=O)C1 | 0.967 | –
OC(c1ccccc1)(c1ccccc1)C1CCNCC1 | 0.962 | –
CNC(C)Cc1ccccc1OC (configuration not stated) | 1.06 | –
C=C1C[C@@H]2[C@H](CC[C@]3(C)C(=O)CC[C@@H]23)[C@@]2(C)C=CC(=O)C=C12 | 1.07 | –
O.O.O.O=C([O-])C1[O][Sb]2[O]C(=O)C([O]2)C(C(=O)[O-])[O][Sb]2[O]C(=O)C1[O]2.[K+].[K+] (configuration not stated) | – | 0.165
CCCCCCCCCCCCCCCC[n+]1ccccc1 | 1.18 | –
CC(=O)NC1CCSC1=O (configuration not stated) | 1.28 | –
CN1C(=O)CCS(=O)(=O)C1c1ccc(Cl)cc1 (configuration not stated) | 1.43 | –
CN(C)[C@@H]1C(=O)C(C(N)=O)=C(O)[C@@]2(O)C(=O)C3=C(O)c4c(O)cccc4[C@@](C)(O)[C@H]3[C@H](O)[C@@H]12 | 0.976 and 0.972 | –
O=P1(N(CCCl)CCCl)NCCCO1 (configuration not stated) | 1.24 | –
